Measured values reported in publication PMC7216183.
No constants are given. Whether binding was seen depends on the method and setting. In cells and extracts the contact can be indirect. Some binding calls cover weakened binding; strength is not graded here.

Protein sequences, listed by entry. Tags and fused reporters are not part of them.
UniProt Q8WUM4: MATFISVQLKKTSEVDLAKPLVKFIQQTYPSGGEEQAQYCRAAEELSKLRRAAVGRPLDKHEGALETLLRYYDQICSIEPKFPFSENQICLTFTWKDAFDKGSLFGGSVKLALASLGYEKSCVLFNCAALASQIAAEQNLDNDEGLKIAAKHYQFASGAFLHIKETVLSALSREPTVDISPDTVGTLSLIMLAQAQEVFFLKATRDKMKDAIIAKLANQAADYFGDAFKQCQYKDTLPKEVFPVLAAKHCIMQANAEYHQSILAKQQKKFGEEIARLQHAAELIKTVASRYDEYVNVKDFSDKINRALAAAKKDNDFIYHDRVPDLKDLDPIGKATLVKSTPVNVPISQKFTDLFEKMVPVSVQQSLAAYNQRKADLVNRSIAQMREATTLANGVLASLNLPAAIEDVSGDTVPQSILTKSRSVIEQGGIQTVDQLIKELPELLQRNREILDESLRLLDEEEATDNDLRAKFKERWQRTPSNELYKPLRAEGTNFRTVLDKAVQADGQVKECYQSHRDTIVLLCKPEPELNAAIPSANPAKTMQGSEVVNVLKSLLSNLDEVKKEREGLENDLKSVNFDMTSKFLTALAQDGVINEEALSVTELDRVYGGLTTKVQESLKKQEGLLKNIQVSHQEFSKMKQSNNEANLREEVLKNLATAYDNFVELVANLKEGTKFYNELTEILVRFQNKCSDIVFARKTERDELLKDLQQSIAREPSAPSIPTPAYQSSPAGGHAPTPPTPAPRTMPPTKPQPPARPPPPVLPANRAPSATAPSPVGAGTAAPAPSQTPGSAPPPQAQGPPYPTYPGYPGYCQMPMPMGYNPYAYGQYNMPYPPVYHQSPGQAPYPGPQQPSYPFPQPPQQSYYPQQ
UniProt P17931: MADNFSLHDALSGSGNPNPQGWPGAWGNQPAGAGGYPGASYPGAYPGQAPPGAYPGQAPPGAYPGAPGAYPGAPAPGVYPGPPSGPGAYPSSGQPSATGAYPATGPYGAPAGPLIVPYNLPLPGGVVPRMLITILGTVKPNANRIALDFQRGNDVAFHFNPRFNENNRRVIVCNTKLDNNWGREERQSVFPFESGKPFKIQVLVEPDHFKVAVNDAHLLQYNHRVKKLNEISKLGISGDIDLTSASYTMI

Biological target: ALG-2 interacting protein X (Alix) (human (endogenous in Magi-5 (HeLa) and HEK293T)) (UniProt Q8WUM4)
Assay: co-IP; Magi-5 cells transfected with pCRF07_BC-wt or pCRF07_BC-7d, 48 h at 37 °C; lysates immunoprecipitated with isotype IgG control, anti-Alix or anti-Gag (p24) and immunoblotted; bands quantified by densitometry

Substance: Galectin-3 (from UniProt P17931 1-250)
- binding: binds
